Data source: PubChem BioAssay AID1508597 (Cure First, 2020)
Assay: 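Genes whose silencing sensitises or protects ovarian cancer cells against rucaparib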 (primary screen). Cells: human ovarian carcinoma lines grown from tumours: OCI-P5x (papillary serous) and OCI-C5x (clear cell). Reagent: siRNA pool against human genes, 1.25 pmol siRNA per well. Timing: 72 h or 96 h, depending on the cell culture. Treatment: rucaparib 20 µM (about IC30) or vehicle, present until read-out. Rucaparib or vehicle: Rucaparib. Cell line: OCI-C5x (clear cell). Measurement: 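ATP luminescence measured at 72 or 96 h according to the culture, then normalised and expressed as percent viability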. Reading the numbers: viability, normalised: higher = more viable cells remaining. Active means: 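a well counts as a hit if its normalised viability is under 80 percent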. Calls: active = viability under 80%; inactive = viability 80% or more.
Shown is an unselected part of the about 2,100 reagents, under one of the conditions tested. 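Calls flag viability under 80% in either arm, not effects specific to rucaparib; the reference for percent is not stated.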 A reagent listed more than once was tested more than once; the source does not tell the runs apart. Not stated in the record: the 100% reference.

CA14, technical replicate 1 gave viability, normalised (%) = 60.4; active.
CA14, technical replicate 2 showed viability, normalised (%) = 61.4; active.
CA14, technical replicate 3 gave viability, normalised (%) = 54.9; active.
APEX1, technical replicate 1 gave viability, normalised (%) = 52.7; active.
APEX1, technical replicate 1 showed viability, normalised (%) = 52.4; active.
With APEX1, technical replicate 2 the deposit lists viability, normalised (%) = 46; active.
With APEX1, technical replicate 2, the values are viability, normalised (%) = 57.2; active.
APEX1, technical replicate 3 showed viability, normalised (%) = 48.4; active.
With APEX1, technical replicate 3, the values are viability, normalised (%) = 55.8; active.
MVK, technical replicate 1 gave viability, normalised (%) = 41.3; active.
With MVK, technical replicate 2, the entry reads viability, normalised (%) = 47; active.
MVK, technical replicate 3 gave viability, normalised (%) = 38; active.
For CENPE, technical replicate 1, the entry reads viability, normalised (%) = 29.1; active.
CENPE, technical replicate 2 scored viability, normalised (%) = 38.4; active.
CENPE, technical replicate 3 gave viability, normalised (%) = 35.7; active.
For UTP3, technical replicate 1 the deposit lists viability, normalised (%) = 54.8; active.
UTP3, technical replicate 2 showed viability, normalised (%) = 49.2; active.
With UTP3, technical replicate 3 the deposit lists viability, normalised (%) = 56; active.
PRMT6, technical replicate 1 scored viability, normalised (%) = 57.7; active.
PRMT6, technical replicate 2 scored viability, normalised (%) = 45.2; active.
For PRMT6, technical replicate 3, the entry reads viability, normalised (%) = 42.7; active.
With MTHFR, technical replicate 1, the entry reads viability, normalised (%) = 54.8; active.
MTHFR, technical replicate 2 gave viability, normalised (%) = 41.4; active.
MTHFR, technical replicate 3 scored viability, normalised (%) = 54; active.
CUL3, technical replicate 1 showed viability, normalised (%) = 68.2; active.
With CUL3, technical replicate 2, the values are viability, normalised (%) = 66.6; active.
For CUL3, technical replicate 3, the values are viability, normalised (%) = 68; active.
For KPNA1, technical replicate 1, the entry reads viability, normalised (%) = 62.1; active.
KPNA1, technical replicate 2 gave viability, normalised (%) = 78; active.
KPNA1, technical replicate 3 gave viability, normalised (%) = 60.6; active.
TPD52, technical replicate 1 gave viability, normalised (%) = 62.8; active.
For TPD52, technical replicate 2, the values are viability, normalised (%) = 48.9; active.
TPD52, technical replicate 3 showed viability, normalised (%) = 45; active.

Laid out differently: 4 of the entries above.
target gene	technical replicate	viability, normalised (%)	call
KPNA1	3	60.6	active
TPD52	1	62.8	active
TPD52	2	48.9	active
TPD52	3	45	active
